Our source for the binding values is article PMC5955124.

The chains behind the UniProt entries cited, without tags or fusion partners. Residues count along the entry.
UniProt Q12913, residues 36-1337: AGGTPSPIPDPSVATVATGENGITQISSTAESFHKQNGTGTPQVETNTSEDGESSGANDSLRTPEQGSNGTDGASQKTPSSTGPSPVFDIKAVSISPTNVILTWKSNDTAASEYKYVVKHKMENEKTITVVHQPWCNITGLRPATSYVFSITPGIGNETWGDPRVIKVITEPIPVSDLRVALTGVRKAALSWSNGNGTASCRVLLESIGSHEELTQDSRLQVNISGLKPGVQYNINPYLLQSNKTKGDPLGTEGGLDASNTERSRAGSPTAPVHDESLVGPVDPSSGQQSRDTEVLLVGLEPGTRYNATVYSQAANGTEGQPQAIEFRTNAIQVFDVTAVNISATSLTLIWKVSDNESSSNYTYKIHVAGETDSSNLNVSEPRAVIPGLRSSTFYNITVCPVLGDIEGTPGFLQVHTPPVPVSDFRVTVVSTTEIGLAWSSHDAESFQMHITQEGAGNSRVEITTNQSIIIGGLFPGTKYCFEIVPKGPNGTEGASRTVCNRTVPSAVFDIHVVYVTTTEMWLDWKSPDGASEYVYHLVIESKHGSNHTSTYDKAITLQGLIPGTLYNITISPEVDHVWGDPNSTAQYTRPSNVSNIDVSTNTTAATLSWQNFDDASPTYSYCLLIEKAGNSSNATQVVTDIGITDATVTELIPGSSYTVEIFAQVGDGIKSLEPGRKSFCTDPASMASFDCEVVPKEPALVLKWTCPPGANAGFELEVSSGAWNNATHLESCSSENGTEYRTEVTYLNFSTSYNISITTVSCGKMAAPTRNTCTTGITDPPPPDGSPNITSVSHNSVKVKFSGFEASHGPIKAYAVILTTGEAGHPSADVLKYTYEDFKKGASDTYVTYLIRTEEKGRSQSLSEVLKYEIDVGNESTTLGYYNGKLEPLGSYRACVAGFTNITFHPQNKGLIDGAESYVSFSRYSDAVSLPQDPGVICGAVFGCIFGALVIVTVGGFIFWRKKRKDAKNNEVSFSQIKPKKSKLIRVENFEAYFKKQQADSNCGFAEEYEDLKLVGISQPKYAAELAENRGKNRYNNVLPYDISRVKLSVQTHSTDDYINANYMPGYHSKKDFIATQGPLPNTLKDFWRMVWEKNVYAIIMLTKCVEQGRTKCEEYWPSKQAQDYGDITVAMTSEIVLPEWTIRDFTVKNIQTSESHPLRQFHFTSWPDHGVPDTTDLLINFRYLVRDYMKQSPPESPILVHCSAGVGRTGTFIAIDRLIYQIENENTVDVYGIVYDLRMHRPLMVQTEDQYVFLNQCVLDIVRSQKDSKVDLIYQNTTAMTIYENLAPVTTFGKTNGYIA
UniProt P25705, residues 44-553: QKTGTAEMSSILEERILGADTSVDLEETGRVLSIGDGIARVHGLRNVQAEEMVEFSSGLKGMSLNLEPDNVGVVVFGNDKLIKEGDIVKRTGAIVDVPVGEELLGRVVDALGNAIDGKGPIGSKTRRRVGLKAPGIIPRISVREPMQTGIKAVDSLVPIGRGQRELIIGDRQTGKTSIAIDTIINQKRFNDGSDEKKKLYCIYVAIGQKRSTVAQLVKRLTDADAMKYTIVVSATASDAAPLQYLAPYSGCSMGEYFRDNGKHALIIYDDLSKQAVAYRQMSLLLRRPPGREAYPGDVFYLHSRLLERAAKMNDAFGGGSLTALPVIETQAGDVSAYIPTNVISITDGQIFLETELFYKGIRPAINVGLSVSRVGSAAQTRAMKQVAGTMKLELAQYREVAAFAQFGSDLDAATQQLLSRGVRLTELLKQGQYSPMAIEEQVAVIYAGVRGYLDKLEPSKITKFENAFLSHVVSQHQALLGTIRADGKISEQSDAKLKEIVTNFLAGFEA
UniProt P51148: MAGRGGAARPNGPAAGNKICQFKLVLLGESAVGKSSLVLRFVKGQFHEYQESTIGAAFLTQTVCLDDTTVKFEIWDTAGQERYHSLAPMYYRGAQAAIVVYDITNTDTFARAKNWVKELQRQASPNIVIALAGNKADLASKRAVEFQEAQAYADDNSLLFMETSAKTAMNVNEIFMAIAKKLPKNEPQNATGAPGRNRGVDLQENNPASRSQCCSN
UniProt P67936: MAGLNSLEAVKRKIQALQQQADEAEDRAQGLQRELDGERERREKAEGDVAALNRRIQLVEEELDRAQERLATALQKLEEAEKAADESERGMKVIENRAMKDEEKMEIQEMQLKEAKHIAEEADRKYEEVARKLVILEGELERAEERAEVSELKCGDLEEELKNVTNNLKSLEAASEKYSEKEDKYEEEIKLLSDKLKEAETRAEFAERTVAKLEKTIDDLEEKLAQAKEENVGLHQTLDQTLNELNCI
UniProt P35580: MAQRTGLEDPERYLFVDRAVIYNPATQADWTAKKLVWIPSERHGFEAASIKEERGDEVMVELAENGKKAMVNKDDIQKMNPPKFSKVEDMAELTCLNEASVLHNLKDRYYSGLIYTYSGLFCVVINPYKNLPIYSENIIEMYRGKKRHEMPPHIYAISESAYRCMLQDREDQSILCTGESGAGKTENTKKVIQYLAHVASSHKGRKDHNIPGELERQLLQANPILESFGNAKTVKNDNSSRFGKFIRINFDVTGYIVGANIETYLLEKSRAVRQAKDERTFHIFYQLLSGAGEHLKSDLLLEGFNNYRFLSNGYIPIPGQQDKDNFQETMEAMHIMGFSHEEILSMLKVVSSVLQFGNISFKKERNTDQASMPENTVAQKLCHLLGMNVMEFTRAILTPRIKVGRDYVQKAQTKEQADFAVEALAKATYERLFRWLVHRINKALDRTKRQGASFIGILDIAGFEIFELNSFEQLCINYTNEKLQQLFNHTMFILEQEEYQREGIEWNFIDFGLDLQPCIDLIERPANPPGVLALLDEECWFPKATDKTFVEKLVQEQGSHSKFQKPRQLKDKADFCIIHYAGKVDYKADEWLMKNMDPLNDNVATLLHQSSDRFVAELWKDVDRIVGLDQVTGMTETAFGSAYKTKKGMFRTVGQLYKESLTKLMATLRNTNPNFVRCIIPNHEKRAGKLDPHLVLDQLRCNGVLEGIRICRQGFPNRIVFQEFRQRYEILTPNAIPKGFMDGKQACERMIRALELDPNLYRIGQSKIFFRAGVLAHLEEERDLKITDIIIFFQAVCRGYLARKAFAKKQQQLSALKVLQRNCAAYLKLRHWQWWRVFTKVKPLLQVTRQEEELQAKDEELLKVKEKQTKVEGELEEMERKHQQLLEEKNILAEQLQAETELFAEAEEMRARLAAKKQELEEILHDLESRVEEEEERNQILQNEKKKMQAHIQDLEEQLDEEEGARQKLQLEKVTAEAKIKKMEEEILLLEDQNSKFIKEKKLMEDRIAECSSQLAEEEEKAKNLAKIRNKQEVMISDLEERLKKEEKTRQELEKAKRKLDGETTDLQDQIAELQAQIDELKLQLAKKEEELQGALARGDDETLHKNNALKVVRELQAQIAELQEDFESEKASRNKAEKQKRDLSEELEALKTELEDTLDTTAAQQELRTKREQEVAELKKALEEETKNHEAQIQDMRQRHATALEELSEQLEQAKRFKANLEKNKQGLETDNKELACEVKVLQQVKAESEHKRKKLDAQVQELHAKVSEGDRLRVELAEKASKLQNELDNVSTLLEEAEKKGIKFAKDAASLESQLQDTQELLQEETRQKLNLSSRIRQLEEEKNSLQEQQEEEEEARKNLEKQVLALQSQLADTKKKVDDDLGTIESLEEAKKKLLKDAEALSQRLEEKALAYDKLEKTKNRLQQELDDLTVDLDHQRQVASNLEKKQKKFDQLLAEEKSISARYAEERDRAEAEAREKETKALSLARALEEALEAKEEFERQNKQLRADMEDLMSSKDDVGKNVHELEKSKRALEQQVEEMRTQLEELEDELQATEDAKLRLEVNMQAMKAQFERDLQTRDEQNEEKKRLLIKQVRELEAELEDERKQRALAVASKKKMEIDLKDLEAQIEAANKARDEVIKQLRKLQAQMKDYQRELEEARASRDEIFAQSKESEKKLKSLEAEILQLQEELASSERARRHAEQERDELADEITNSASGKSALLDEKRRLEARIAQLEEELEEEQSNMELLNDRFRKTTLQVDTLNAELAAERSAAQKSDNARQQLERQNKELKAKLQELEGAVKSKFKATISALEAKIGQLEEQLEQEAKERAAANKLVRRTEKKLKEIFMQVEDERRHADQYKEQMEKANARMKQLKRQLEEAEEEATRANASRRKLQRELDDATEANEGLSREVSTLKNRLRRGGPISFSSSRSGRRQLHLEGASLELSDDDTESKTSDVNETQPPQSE
UniProt P06396, residues 28-782: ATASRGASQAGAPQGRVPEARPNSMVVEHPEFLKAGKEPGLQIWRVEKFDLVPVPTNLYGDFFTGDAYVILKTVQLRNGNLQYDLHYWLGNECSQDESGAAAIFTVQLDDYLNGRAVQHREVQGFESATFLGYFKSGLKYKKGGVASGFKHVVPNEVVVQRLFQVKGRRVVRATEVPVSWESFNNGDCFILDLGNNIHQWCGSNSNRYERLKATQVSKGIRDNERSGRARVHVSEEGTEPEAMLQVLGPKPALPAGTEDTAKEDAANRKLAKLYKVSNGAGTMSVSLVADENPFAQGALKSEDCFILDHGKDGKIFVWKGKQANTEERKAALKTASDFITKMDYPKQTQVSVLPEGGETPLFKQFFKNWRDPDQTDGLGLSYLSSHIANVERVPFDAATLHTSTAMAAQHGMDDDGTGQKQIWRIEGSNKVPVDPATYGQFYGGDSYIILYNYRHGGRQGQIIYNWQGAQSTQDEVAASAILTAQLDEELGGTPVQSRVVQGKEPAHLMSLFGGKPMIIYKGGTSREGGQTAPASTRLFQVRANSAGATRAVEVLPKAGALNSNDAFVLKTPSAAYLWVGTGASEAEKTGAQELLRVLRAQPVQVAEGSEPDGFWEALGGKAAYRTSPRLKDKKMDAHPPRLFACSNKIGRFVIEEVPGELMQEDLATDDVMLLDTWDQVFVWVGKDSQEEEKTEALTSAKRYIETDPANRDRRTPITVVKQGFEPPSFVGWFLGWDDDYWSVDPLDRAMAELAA
UniProt P08670: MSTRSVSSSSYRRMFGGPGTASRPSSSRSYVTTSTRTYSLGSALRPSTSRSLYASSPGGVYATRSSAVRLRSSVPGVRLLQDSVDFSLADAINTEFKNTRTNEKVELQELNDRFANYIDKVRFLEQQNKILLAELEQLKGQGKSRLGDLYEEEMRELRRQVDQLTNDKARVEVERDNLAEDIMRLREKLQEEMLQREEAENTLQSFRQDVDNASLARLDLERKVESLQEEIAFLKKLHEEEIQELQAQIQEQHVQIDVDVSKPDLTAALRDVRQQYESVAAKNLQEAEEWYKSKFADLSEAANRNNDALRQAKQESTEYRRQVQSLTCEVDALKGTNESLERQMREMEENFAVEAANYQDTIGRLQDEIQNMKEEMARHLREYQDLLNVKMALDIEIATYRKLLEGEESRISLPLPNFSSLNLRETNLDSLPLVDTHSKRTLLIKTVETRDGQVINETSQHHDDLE
UniProt P61011: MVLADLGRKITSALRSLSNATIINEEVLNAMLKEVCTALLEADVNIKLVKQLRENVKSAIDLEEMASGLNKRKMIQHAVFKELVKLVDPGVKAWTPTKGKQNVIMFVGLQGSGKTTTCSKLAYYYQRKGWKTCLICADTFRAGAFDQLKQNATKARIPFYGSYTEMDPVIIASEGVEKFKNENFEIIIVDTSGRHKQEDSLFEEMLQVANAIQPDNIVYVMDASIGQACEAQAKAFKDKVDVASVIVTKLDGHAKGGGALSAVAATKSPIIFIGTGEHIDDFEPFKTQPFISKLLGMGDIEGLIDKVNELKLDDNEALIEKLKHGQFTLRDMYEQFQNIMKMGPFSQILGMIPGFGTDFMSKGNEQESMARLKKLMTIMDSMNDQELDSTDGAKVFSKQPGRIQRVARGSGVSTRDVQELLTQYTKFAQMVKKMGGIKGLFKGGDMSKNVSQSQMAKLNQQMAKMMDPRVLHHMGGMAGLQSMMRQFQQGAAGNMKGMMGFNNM
UniProt P17844: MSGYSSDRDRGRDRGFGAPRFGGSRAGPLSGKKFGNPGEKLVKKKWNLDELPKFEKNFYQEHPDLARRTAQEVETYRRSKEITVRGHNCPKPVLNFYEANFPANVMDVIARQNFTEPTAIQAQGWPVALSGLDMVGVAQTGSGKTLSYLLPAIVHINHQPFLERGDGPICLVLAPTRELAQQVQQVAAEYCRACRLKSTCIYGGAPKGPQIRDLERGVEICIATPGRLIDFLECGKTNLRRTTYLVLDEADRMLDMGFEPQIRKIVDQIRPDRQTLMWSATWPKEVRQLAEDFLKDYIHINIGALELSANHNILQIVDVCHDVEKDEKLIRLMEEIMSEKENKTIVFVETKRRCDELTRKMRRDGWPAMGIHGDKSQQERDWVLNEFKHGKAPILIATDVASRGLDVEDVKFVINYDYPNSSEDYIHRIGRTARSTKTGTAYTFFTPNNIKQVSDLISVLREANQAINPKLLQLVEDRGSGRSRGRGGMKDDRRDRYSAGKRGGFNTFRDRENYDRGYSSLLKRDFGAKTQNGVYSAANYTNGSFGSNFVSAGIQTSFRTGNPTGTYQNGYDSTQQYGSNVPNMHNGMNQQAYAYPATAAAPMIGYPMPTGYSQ

In this experiment the target is histidine six-tagged PTPRJ (human) (UniProt Q12913). In words: affinity purification with mass spectrometry; PTPRJ-His6 captured on MagneHis poly(His)-avid magnetic beads from enriched membrane extracts (Mem-PER kit) of A549 cells three days after infection with Ad PTPRJ-His6 at MOI30; washes with 100 mM HEPES, 500 mM NaCl, pH 7.5; elution with 500 mM …; dimethyl labelling against a control eluate from cells with untagged wild-type PTPRJ.

Results are given in words; binding and its absence hold for the method and conditions named. In cells and extracts the contact can be indirect. Here binding means that the protein was enriched with, or labelled near, the bait; the list need not be complete.

With “Heat shock 70 kDa protein 1A/1B (from UniProt P0DMV8 1-641)”, the binding result is reported as “binds”. Take “ATP synthase subunit alpha, mitochondrial (from UniProt P25705 44-553)”: the binding result was “binds”. The value for CD98hc (from UniProt P08195 1-529) was “binds”. The result for “Ras-related protein Rab-5C (from UniProt P51148 1-216)” reads “binds”; that for “Endoplasmin (from UniProt P14625 22-803)”, “binds”.

On to “Tropomyosin alpha-4 chain (from UniProt P67936 1-248)”, for which the binding result is “binds”. As to “Pyruvate kinase PKM (from UniProt P14618 1-531)”, the binding result is recorded as “binds”. As to “Ras-related protein Rab-2A (from UniProt P61019 1-212)”, the binding result is on record as “binds”. As to “Ras GTPase-activating-like protein IQGAP1 (from UniProt P46940 1-1657)”, the binding result is “binds”. The value for “Plasma membrane calcium-transporting ATPase 1 (from UniProt P20020 1-1220)” was “binds”; that for Myosin-9 (from UniProt P35579 1-1960) was “binds”. Myosin-10 (from UniProt P35580 1-1976): the binding result is recorded as “binds”. Regarding Gelsolin (from UniProt P06396 28-782), the binding result is on record as “binds”.

For the molecule Calnexin (from UniProt P27824 21-592), the binding result is “binds”. Vimentin (from UniProt P08670 1-466): the binding entry was “binds”.

Consider “Spectrin alpha chain, non-erythrocytic 1 (from UniProt Q13813 1-2472)”, for which the binding entry is “binds”. The result for “Signal recognition particle 54 kDa protein (from UniProt P61011 1-504)” reads “binds”; that for “Ras-related protein Rap-1b (Fragment) (from UniProt P61224 1-184)”, “binds”; that for “Probable ATP-dependent RNA helicase DDX5 (from UniProt P17844 1-614)”, “binds”.

B1: Coiled-coil domain-containing protein 51 (protein, UniProt Q96ER9 36-411)
chain: LCSPGPSQPGEKRPEEVALGLHHRLPALGRALGHSIQQRATSTAKTWWDRYEEFVGLNEVREAQGKVTEAEKVFMVARGLVREAREDLEVHQAKLKEVRDRLDRVSREDSQYLELATLEHRMLQEEKRLRTAYLRAEDSEREKFSLFSAAVRESHEKERTRAERTKNWSLIGSVLGALIGVAGSTYVNRVRLQELKALLLEAQKGPVSLQEAIREQASSYSRQQRDLHNLMVDLRGLVHAAGPGQDSGSQAGSPPTRDRDVDVLSAALKEQLSHSRQVHSCLEGLREQLDGLEKTCSQMAGVVQLVKSAAHPGLVEPADGAMPSFLLEQGSMILALSDTEQRLEAQVNRNTIYSTLVTCVTFVATLPVLYMLFKAS
On to B1, for which the binding entry is “binds”.

B2: Lamina-associated polypeptide 2, isoform alpha (protein, UniProt P42166 1-694)
chain: MPEFLEDPSVLTKDKLKSELVANNVTLPAGEQRKDVYVQLYLQHLTARNRPPLPAGTNSKGPPDFSSDEEREPTPVLGSGAAAAGRSRAAVGRKATKKTDKPRQEDKDDLDVTELTNEDLLDQLVKYGVNPGPIVGTTRKLYEKKLLKLREQGTESRSSTPLPTISSSAENTRQNGSNDSDRYSDNEEGKKKEHKKVKSTRDIVPFSELGTTPSGGGFFQGISFPEISTRPPLGSTELQAAKKVHTSKGDLPREPLVATNLPGRGQLQKLASERNLFISCKSSHDRCLEKSSSSSSQPEHSAMLVSTAASPSLIKETTTGYYKDIVENICGREKSGIQPLCPERSHISDQSPLSSKRKALEESESSQLISPPLAQAIRDYVNSLLVQGGVGSLPGTSNSMPPLDVENIQKRIDQSKFQETEFLSPPRKVPRLSEKSVEERDSGSFVAFQNIPGSELMSSFAKTVVSHSLTTLGLEVAKQSQHDKIDASELSFPFHESILKVIEEEWQQVDRQLPSLACKYPVSSREATQILSVPKVDDEILGFISEATPLGGIQAASTESCNQQLDLALCRAYEAAASALQIATHTAFVAKAMQADISQAAQILSSDPSRTHQALGILSKTYDAASYICEAAFDEVKMAAHTMGNATVGRRYLWLKDCKINLASKNKLASTPFKGGTLFGGEVCKVIKKRGNKH
As to B2, the binding entry is on record as “binds”.

B3: Acyl-coenzyme A thioesterase 9, mitochondrial (Fragment) (protein, UniProt Q9Y305 22-439)
chain: LTQGPQNPKKQGIFHIHEVRDKLREIVGASTNWRDHVKAMEERKLLHSFLAKSQDGLPPRRMKDSYIEVLLPLGSEPELREKYLTVQNTVRFGRILEDLDSLGVLICYMHNKIHSAKMSPLSIVTALVDKIDMCKKSLSPEQDIKFSGHVSWVGKTSMEVKMQMFQLHGDEFCPVLDATFVMVARDSENKGPAFVNPLIPESPEEEELFRQGELNKGRRIAFSSTSLLKMAPSAEERTTIHEMFLSTLDPKTISFRSRVLPSNAVWMENSKLKSLEICHPQERNIFNRIFGGFLMRKAYELAWATACSFGGSRPFVVAVDDIMFQKPVEVGSLLFLSSQVCFTQNNYIQVRVHSEVASLQEKQHTTTNVFHFTFMSEKEVPLVFPKTYGESMLYLDGQRHFNSMSGPATLRKDYLVEP
For the molecule B3, the binding entry is “binds”.

B4: ER membrane protein complex subunit 1 (protein, UniProt Q8N766 23-993)
chain: YEDQVGKFDWRQQYVGKVKFASLEFSPGSKKLVVATEKNVIAALNSRTGEILWRHVDKGTAEGAVDAMLLHGQDVITVSNGGRIMRSWETNIGGLNWEITLDSGSFQALGLVGLQESVRYIAVLKKTTLALHHLSSGHLKWVEHLPESDSIHYQMVYSYGSGVVWALGVVPFSHVNIVKFNVEDGEIVQQVRVSTPWLQHLSGACGVVDEAVLVCPDPSSRSLQTLALETEWELRQIPLQSLDLEFGSGFQPRVLPTQPNPVDASRAQFFLHLSPSHYALLQYHYGTLSLLKNFPQTALVSFATTGEKTVAAVMACRNEVQKSSSSEDGSMGSFSEKSSSKDSLACFNQTYTINLYLVETGRRLLDTTITFSLEQSGTRPERLYIQVFLKKDDSVGYRALVQTEDHLLLFLQQLAGKVVLWSREESLAEVVCLEMVDLPLTGAQAELEGEFGKKADGLLGMFLKRLSSQLILLQAWTSHLWKMFYDARKPRSQIKNEINIDTLARDEFNLQKMMVMVTASGKLFGIESSSGTILWKQYLPNVKPDSSFKLMVQRTTAHFPHPPQCTLLVKDKESGMSSLYVFNPIFGKWSQVAPPVLKRPILQSLLLPVMDQDYAKVLLLIDDEYKVTAFPATRNVLRQLHELAPSIFFYLVDAEQGRLCGYRLRKDLTTELSWELTIPPEVQRIVKVKGKRSSEHVHSQGRVMGDRSVLYKSLNPNLLAVVTESTDAHHERTFIGIFLIDGVTGRIIHSSVQKKAKGPVHIVHSENWVVYQYWNTKARRNEFTVLELYEGTEQYNATAFSSLDRPQLPQVLQQSYIFPSSISAMEATITERGITSRHLLIGLPSGAILSLPKALLDPRRPEIPTEQSREENLIPYSPDVQIHAERFINYNQTVSRMRGIYTAPSGLESTCLVVAYGLDIYQTRVYPSKQFDVLKDDYDYVLISSVLFGLVFATMITKRLAQVKLLNRAWR
For the molecule B4, the binding result is given as “binds”.

B5: Annexin A1 (protein, UniProt P04083 1-346)
chain: MAMVSEFLKQAWFIENEEQEYVQTVKSSKGGPGSAVSPYPTFNPSSDVAALHKAIMVKGVDEATIIDILTKRNNAQRQQIKAAYLQETGKPLDETLKKALTGHLEEVVLALLKTPAQFDADELRAAMKGLGTDEDTLIEILASRTNKEIRDINRVYREELKRDLAKDITSDTSGDFRNALLSLAKGDRSEDFGVNEDLADSDARALYEAGERRKGTDVNVFNTILTTRSYPQLRRVFQKYTKYSKHDMNKVLDLELKGDIEKCLTAIVKCATSKPAFFAEKLHQAMKGVGTRHKALIRIMVSRSEIDMNDIKAFYQKMYGISLCQAILDETKGDYEKILVALCGGN
Regarding B5, the binding entry is given as “binds”.

B6: RELT-like protein 1 (Fragment) (protein, UniProt Q8IUW5 24-271)
chain: SPLVAPDNGSSRTLHSRTETTPSPSNDTGNGHPEYIAYALVPVFFIMGLFGVLICHLLKKKGYRCTTEAEQDIEEEKVEKIELNDSVNENSDTVGQIVHYIMKNEANADVLKAMVADNSLYDPESPVTPSTPGSPPVSPGPLSPGGTPGKHVCGHHLHTVGGVVERDVCHRCRHKRWHFIKPTNKSRESRPRRQGEVTVLSVGRFRVTKVEHKSNQKERRSLMSVSGAETVNGEVPATPVKRERSGTE
Consider B6, for which the binding result was “binds”.
